No constants are given. Whether binding was seen depends on the method and setting. Binding seen in cells or lysates may run through a third protein. Some entries that bind do so weakly or less than the wild type. Where a sequence is shown, tags or fusion partners need not be part of it.
Molecular target: DISP-FLAG (Dispatched, SHH deployment protein, FLAG-tagged) (UniProt Q3TDN0)
Experiment: co-IP

Sequences of proteins named here, by UniProt entry; tags and fusion partners are left off.
UniProt Q3TDN0: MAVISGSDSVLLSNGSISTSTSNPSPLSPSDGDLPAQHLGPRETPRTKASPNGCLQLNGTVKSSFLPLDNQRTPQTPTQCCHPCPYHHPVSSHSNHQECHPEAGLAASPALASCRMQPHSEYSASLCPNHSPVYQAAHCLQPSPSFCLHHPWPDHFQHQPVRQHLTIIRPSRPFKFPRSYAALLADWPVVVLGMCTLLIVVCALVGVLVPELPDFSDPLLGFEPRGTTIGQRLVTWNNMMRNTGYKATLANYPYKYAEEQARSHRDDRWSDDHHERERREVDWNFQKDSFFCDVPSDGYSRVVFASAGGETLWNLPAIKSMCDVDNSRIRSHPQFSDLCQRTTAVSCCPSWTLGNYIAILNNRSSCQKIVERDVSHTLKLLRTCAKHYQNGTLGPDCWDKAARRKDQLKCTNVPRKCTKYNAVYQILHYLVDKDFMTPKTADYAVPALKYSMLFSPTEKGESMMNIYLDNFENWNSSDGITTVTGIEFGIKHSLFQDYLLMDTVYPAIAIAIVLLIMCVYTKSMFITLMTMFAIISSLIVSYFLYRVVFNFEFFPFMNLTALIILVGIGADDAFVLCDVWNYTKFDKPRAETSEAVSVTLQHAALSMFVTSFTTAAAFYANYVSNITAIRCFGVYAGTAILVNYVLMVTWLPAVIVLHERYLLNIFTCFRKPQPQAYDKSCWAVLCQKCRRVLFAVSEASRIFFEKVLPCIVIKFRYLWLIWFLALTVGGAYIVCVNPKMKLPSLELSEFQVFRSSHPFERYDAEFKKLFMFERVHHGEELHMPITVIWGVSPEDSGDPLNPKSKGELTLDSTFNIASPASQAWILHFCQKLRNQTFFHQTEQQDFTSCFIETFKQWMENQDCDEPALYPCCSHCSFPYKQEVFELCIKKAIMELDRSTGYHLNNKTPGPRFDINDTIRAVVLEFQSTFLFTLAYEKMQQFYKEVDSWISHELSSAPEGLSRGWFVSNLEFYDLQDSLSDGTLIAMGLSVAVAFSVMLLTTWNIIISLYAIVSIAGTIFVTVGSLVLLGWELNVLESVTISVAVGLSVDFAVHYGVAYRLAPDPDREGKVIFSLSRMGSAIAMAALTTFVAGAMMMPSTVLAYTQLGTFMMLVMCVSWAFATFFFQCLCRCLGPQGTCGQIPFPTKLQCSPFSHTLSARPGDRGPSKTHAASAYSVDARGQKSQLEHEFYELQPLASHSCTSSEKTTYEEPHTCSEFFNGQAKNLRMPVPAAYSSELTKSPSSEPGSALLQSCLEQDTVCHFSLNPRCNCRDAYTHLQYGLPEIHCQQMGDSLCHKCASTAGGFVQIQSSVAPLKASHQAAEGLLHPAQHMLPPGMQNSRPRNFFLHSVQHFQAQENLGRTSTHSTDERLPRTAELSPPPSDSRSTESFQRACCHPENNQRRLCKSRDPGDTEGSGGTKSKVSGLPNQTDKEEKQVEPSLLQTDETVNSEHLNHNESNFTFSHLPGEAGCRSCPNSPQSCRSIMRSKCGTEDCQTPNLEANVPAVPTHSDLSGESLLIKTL

B1: BOC-EGFP (receptor, UniProt Q9BWV1 31-1114)
chain: DLNEVPQVTVQPASTVQKPGGTVILGCVVEPPRMNVTWRLNGKELNGSDDALGVLITHGTLVITALNNHTVGRYQCVARMPAGAVASVPATVTLANLQDFKLDVQHVIEVDEGNTAVIACHLPESHPKAQVRYSVKQEWLEASRGNYLIMPSGNLQIVNASQEDEGMYKCAAYNPVTQEVKTSGSSDRLRVRRSTAEAARIIYPPEAQTIIVTKGQSLILECVASGIPPPRVTWAKDGSSVTGYNKTRFLLSNLLIDTTSEEDSGTYRCMADNGVGQPGAAVILYNVQVFEPPEVTMELSQLVIPWGQSAKLTCEVRGNPPPSVLWLRNAVPLISSQRLRLSRRALRVLSMGPEDEGVYQCMAENEVGSAHAVVQLRTSRPSITPRLWQDAELATGTPPVSPSKLGNPEQMLRGQPALPRPPTSVGPASPQCPGEKGQGAPAEAPIILSSPRTSKTDSYELVWRPRHEGSGRAPILYYVVKHRKVTNSSDDWTISGIPANQHRLTLTRLDPGSLYEVEMAAYNCAGEGQTAMVTFRTGRRPKPEIMASKEQQIQRDDPGASPQSSSQPDHGRLSPPEAPDRPTISTASETSVYVTWIPRGNGGFPIQSFRVEYKKLKKVGDWILATSAIPPSRLSVEITGLEKGTSYKFRVRALNMLGESEPSAPSRPYVVSGYSGRVYERPVAGPYITFTDAVNETTIMLKWMYIPASNNNTPIHGFYIYYRPTDSDNDSDYKKDMVEGDKYWHSISHLQPETSYDIKMQCFNEGGESEFSNVMICETKARKSSGQPGRLPPPTLAPPQPPLPETIERPVGTGAMVARSSDLPYLIVGVVLGSIVLIIVTFIPFCLWRAWSKQKHTTDLGFPRSALPPSCPYTMVPLGGLPGHQASGQPYLSGISGRACANGIHMNRGCPSAAVGYPGMKPQQHCPGELQQQSDTSSLLRQTHLGNGYDPQSHQITRGPKSSPDEGSFLYTLPDDSTHQLLQPHHDCCQRQEQPAAVGQSGVRRAPDSPVLEAVWDPPFHSGPPCCLGLVPVEEVDSPDSCQVSGGDWCPQHPVGAYVGQEPGMQLSPGPLVRVSFETPPLTI
  binding: binds

B2: CDON-EGFP (receptor, UniProt Q4KMG0 26-1287)
chain: DLAPYFTSEPLSAVQKLGGPVVLHCSAQPVTTRISWLHNGKTLDGNLEHVKIHQGTLTILSLNSSLLGYYQCLANNSIGAIVSGPATVSVAVLGDFGSSTKHVITAEEKSAGFIGCRVPESNPKAEVRYKIRGKWLEHSTENYLILPSGNLQILNVSLEDKGSYKCAAYNPVTHQLKVEPIGRKLLVSRPSSDDVHILHPTHSQALAVLSRSPVTLECVVSGVPAPQVYWLKDGQDIAPGSNWRRLYSHLATDSVDPADSGNYSCMAGNKSGDVKYVTYMVNVLEHASISKGLQDQIVSLGATVHFTCDVHGNPAPNCTWFHNAQPIHPSARHLTAGNGLKISGVTVEDVGMYQCVADNGIGFMHSTGRLEIENDGGFKPVIITAPVSAKVADGDFVTLSCNASGLPVPVIRWYDSHGLITSHPSQVLRSKSRKSQLSRPEGLNLEPVYFVLSQAGASSLHIQAVTQEHAGKYICEAANEHGTTQAEASLMVVPFETNTKAETVTLPDAAQNDDRSKRDGSETGLLSSFPVKVHPSAVESAPEKNASGISVPDAPIILSPPQTHTPDTYNLVWRAGKDGGLPINAYFVKYRKLDDGVGMLGSWHTVRVPGSENELHLAELEPSSLYEVLMVARSAAGEGQPAMLTFRTSKEKTASSKNTQASSPPVGIPKYPVVSEAANNNFGVVLTDSSRHSGVPEAPDRPTISTASETSVYVTWIPRANGGSPITAFKVEYKRMRTSNWLVAAEDIPPSKLSVEVRSLEPGSTYKFRVIAINHYGESFRSSASRPYQVVGFPNRFSSRPITGPHIAYTEAVSDTQIMLKWTYIPSSNNNTPIQGFYIYYRPTDSDNDSDYKRDVVEGSKQWHMIGHLQPETSYDIKMQCFNEGGESEFSNVMICETKVKRVPGASEYPVKDLSTPPNSLGSGGNVGPATSPARSSDMLYLIVGCVLGVMVLILMVFIAMCLWKNRQQNTIQKYDPPGYLYQGSDMNGQMVDYTTLSGASQINGNVHGGFLTNGGLSSGYSHLHHKVPNAVNGIVNGSLNGGLYSGHSNSLTRTHVDFEHPHHLVNGGGMYTAVPQIDPLECVNCRNCRNNNRCFTKTNSTFSSSPPPVVPVVAPYPQDGLEMKPLSHVKVPVCLTSAVPDCGQLPEESVKDNVEPVPTQRTCCQDIVNDVSSDGSEDPAEFSRGQEGMINLRIPDHLQLAKSCVWEGDSCAHSETEINIVSWNALILPPVPEGCAEKTMWSPPGIPLDSPTEVLQQPRET
  binding: binds

Source: doi:10.1101/2020.05.06.080820
